PubChem BioAssay AID662 (National Center for Advancing Translational Sciences (NCATS), 2007)
The list shows a part of the results. Further columns of the screen follow, without active or inactive calls. Most of these compounds were active or inconclusive in the main read-out, so they are no random draw. Words in brackets tell the shape of the fitted curve; partial curves, single points and poor fits give uncertain potencies.

Experiment: Cell signaling CRE-BLA (Fsk stim)
Conditions: CHO CRE-bla reporter (cAMP response element driving beta-lactamase), forskolin EC10, beta-lactamase ratio; measured here: 460 nm blue channel
In short: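 Beta-lactamase reporter under a cAMP responsive element in CHO cells; compounds tested in titration series against EC10 NKH 477, 3 h at 37 °C. Read-out: CCF4 FRET ratio 460nm/530nm (excitation 405nm) giving %Activity, fitted to AC50.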

SMILES | AC50
CC1=C(C(=O)Nc2ccc(Cl)cc2)C(c2cccs2)n2nnnc2N1 (stereo not drawn) | 0.398 µM [falling, full curve]
CCc1c(C)c2cc(Cl)c(O)c(CN(CC)CC)c2oc1=O | 10 µM [rising, partial curve]
Cc1cc(C)nc(SCc2nnc(SCC(=O)Nc3ncc(C)s3)n2Cc2ccco2)n1 | 10 µM [rising, partial curve]
COC(=O)c1ccc(C=O)cc1 | 0.794 µM [falling, full curve, poor fit]
CCOC(=O)C1CCN(c2nc(-c3ccccc3)nc3c2oc2ccccc23)CC1 | 25.1 µM [rising, single point]
COc1cc(S(=O)(=O)NCc2ccccc2)ccc1F | 5.01 µM [falling, full curve, poor fit]
Cc1cc2c(c(=O)n1CCN(C)C)C(c1ccncc1)C(C#N)=C(N)O2 (stereo not drawn) | 2.51 µM [falling, full curve]
COc1ccccc1N1CCN(CC(=O)Nc2ccc(C)c(F)c2)CC1 | 0.398 µM [falling, full curve]
COc1ccc2nc(N3CCCCC3)c(C#N)cc2c1 | 12.6 µM [rising, single point]
O=C(NCCO)c1c(O)c2cccc3c2n(c1=O)CC3 | 0.0316 µM [falling, partial curve, poor fit]
CCCCCCNc1cc2n(c(=O)n1)CCc1cc(OC)c(OC)cc1-2 | 0.794 µM [rising, full curve]
CCOc1ccc(C(C)=O)cc1COc1ccc(-n2cnnn2)cc1 | 25.1 µM [rising, single point]
O=C(NCc1cccnc1)NC1(C(F)(F)F)Oc2ccccc2O1 | 20 µM [falling, single point]
COC(=O)c1c(NC(=O)c2nc3ccccc3s2)sc2c1CCN(C(C)=O)C2 | 3.98 µM [rising, full curve]
Cc1ccc(-c2nnn(CC(=O)N(Cc3cccs3)C(C(=O)NC(C)(C)C)c3ccco3)n2)o1 (stereo not drawn) | 7.94 µM [rising, partial curve]
Cc1nc2nc(-c3ccco3)[nH]n2c(=O)c1Cc1ccccc1 | 1 µM [falling, partial curve]
COc1ccc(CCNC(=O)c2ccccc2NC(=O)c2ccco2)cc1OC | 15.8 µM [rising, partial curve]
COc1cc(OC)c(-c2nn3c(-c4ccco4)nnc3s2)cc1OC | 3.98 µM [rising, full curve]
COC(=O)c1cc(OC)c(OC)cc1NC(=O)CSc1nnnn1Cc1ccccc1 | 10 µM [rising, single point]
CCCn1c(SCC(=O)c2cc(OC)ccc2OC)nnc1-c1ccco1 | 10 µM [rising, single point]
Cc1cc(N2CCN(S(=O)(=O)c3ccc(Cl)cc3)CC2)c2ccccc2n1 | 25.1 µM [falling, single point]
O=C(CSc1ncnc2c1oc1ccccc12)OCc1ccccc1 | 25.1 µM [rising, single point]
COc1ccccc1NC(=O)CSc1ccc2nnc(-c3cccnc3)n2n1 | 12.6 µM [rising, single point]

SMILES | AC50
COc1ccccc1NC(=O)CCN1C(=O)C2CC=C(Cl)CC2C1=O (stereo not drawn) | 0.398 µM [rising, full curve, poor fit]
Cc1nc2c(nnn2Cc2ccccc2)c(=O)n1-c1ccccc1 | 0.316 µM [falling, partial curve, poor fit]
Clc1ccc2nc(SCc3nnc(-c4ccccc4)o3)[nH]c2c1 | 12.6 µM [rising, partial curve]
CC1CN(c2nc(-c3ccccc3)nc3ccccc23)CC(C)O1 (stereo not drawn) | 1.26 µM [rising, partial curve]
CCCCCn1c(CNC(=O)c2cccs2)nc2ccccc21 | 0.00316 µM [rising, full curve, poor fit]
C=CCn1c(SCCCc2ccccc2)nc2c1c(=O)[nH]c(=O)n2C | 3.16 µM [rising, single point]
COc1ccc(-c2noc(-c3cccc(OC)c3OC)n2)cc1OC | 2 µM [rising, full curve]
NC(=O)c1ccsc1NC(=O)C1CCCN1S(=O)(=O)c1ccc(Cl)cc1 (stereo not drawn) | 12.6 µM [falling, partial curve]
O=C(C1CCCCC1)N1CCN(S(=O)(=O)c2ccc(Cl)cc2)CC1 | 25.1 µM [falling, partial curve]
COC(=O)C1=C(N)Oc2cc(C)n(Cc3cccnc3)c(=O)c2C1c1cccc(OC)c1OC (stereo not drawn) | 20 µM [rising, single point]
COc1ccc(C(c2c(O)ccc3ccccc23)N2CCOCC2)c(OC)c1 (stereo not drawn) | 1.26 µM [falling, full curve]
C=CCn1c(=O)n(CC=C)c(=O)n(CC=C)c1=O | 12.6 µM [rising, partial curve]
Cc1nc(N2CCN(c3ccccc3)CC2)nc2c1C(=O)CCC2 | 2 µM [falling, partial curve]
COCc1nnc(NC(=O)c2cc(Cl)ccc2OC)s1 | 10 µM [rising, partial curve]
Cc1nn(-c2ccccc2)c2sc(C(=O)n3cccn3)cc12 | 25.1 µM [rising, single point]
O=C(CCC(=O)c1cccs1)OCc1nc2ccccc2s1 | 0.126 µM [falling, single point]
CCOC(=O)CSc1nc(C)c(C(=O)OCC)s1 | 5.01 µM [falling, single point]
COC(=O)[C@@H](NC(=O)N(C1CCCCC1)C1CCCCC1)C(C)C | 0.0158 µM [falling, full curve, poor fit]
O=C(c1ccccc1)N(Cc1ccc2c(c1)OCO2)Cc1nc2ccccc2c(=O)[nH]1 | 12.6 µM [rising, partial curve]
Cn1c(=N)c(S(=O)(=O)c2ccc(F)cc2)cc2c(=O)n3ccccc3nc21 | 1.58 µM [rising, full curve]
O=C(Nc1cccc2cccnc12)c1ccc(Br)o1 | 25.1 µM [rising, single point]
COc1ccc2nc(NC(=O)Cn3cnc4c(=O)n(C)c(=O)n(C)c43)sc2c1 | 7.94 µM [rising, partial curve]
Cc1c(O)c(CN2CCCC2)cc2c3c(c(=O)oc12)CCC3 | 12.6 µM [rising, partial curve]

An excerpt from above in order of length of the SMILES, smallest number first:
SMILES | AC50
CCOC(=O)CSc1nc(C)c(C(=O)OCC)s1 | 5.01 µM [falling, single point]
COc1ccc2nc(N3CCCCC3)c(C#N)cc2c1 | 12.6 µM [rising, single point]
COCc1nnc(NC(=O)c2cc(Cl)ccc2OC)s1 | 10 µM [rising, partial curve]
CCCCCn1c(CNC(=O)c2cccs2)nc2ccccc21 | 0.00316 µM [rising, full curve, poor fit]
O=C(CSc1ncnc2c1oc1ccccc12)OCc1ccccc1 | 25.1 µM [rising, single point]
Cc1nc2c(nnn2Cc2ccccc2)c(=O)n1-c1ccccc1 | 0.316 µM [falling, partial curve, poor fit]
CCOc1ccc(C(C)=O)cc1COc1ccc(-n2cnnn2)cc1 | 25.1 µM [rising, single point]
Clc1ccc2nc(SCc3nnc(-c4ccccc4)o3)[nH]c2c1 | 12.6 µM [rising, partial curve]
COc1ccccc1NC(=O)CSc1ccc2nnc(-c3cccnc3)n2n1 | 12.6 µM [rising, single point]
C=CCn1c(SCCCc2ccccc2)nc2c1c(=O)[nH]c(=O)n2C | 3.16 µM [rising, single point]
COc1ccc(C(c2c(O)ccc3ccccc23)N2CCOCC2)c(OC)c1 (stereo not drawn) | 1.26 µM [falling, full curve]
COC(=O)[C@@H](NC(=O)N(C1CCCCC1)C1CCCCC1)C(C)C | 0.0158 µM [falling, full curve, poor fit]
COC(=O)c1cc(OC)c(OC)cc1NC(=O)CSc1nnnn1Cc1ccccc1 | 10 µM [rising, single point]
COC(=O)c1c(NC(=O)c2nc3ccccc3s2)sc2c1CCN(C(C)=O)C2 | 3.98 µM [rising, full curve]
Cn1c(=N)c(S(=O)(=O)c2ccc(F)cc2)cc2c(=O)n3ccccc3nc21 | 1.58 µM [rising, full curve]

(listing goes on)

SMILES | AC50
CCOC(=O)Nc1ccc2c(c1)ncn2C1CCCCC1 | 10 µM [rising, partial curve]
CC(=O)NC(CCS(C)(=O)=O)C(=O)Nc1cccc(C)c1C (stereo not drawn) | 20 µM [rising, single point]
COc1ccccc1N1CCN(C[C@@H](C(=O)NC(C)(C)C)c2ccccc2)CC1 | 31.6 µM [falling, single point]
O=S(=O)(c1ccccc1)N1CCN(c2nnnn2-c2ccccc2)CC1 | 5.01 µM [falling, single point]
CCOCCCNC(=O)C(NC(=O)c1cnccn1)c1ccc(OC)cc1 (stereo not drawn) | 0.126 µM [falling, full curve, poor fit]
COc1ccc(OCCCC(=O)Nc2ccc3c(c2)OCCO3)cc1 | 5.01 µM [falling, partial curve]
CCOc1ccc(CNC(=O)C2CCN(S(=O)(=O)CC)CC2)cc1OC | 12.6 µM [falling, partial curve, poor fit]
Cn1c(=O)c2c(nc(CN3CCN(c4ccccc4)CC3)n2CCCc2ccccc2)n(C)c1=O | 0.398 µM [falling, full curve, poor fit]
O=C(Cn1cnc2ccccc2c1=O)NC1CCCc2ccccc21 (stereo not drawn) | 0.0794 µM [falling, partial curve, poor fit]
Cc1ccc2[nH]c(=O)c3cc(C(=O)N(C)Cc4ccco4)sc3c2c1 | 10 µM [rising, partial curve]
CC1(C)CC(=O)C(C=NCCC2=CCCCC2)=C(O)C1 | 0.00316 µM [falling, full curve, poor fit]
CCOc1ccc(CCNS(=O)(=O)c2cccc3nsnc23)cc1OCC | 10 µM [rising, partial curve]
CCc1nnc(NC(=O)CSc2nc3c(cc2C#N)CCCC3)s1 | 2.51 µM [rising, full curve]
COc1cccc(NC(=O)Cc2cn(C)c3ccccc23)c1 | 1 µM [falling, full curve]
COc1ccc(-n2c(=O)c(-c3ccc(Cl)cc3)nc3cnc(N(C)C)nc32)cc1 | 5.01 µM [rising, partial curve]
O=c1c(-c2cc(F)cc(F)c2)nc2cnc(Oc3ccccc3)nc2n1C[C@H]1CCCO1 | 3.98 µM [rising, single point]
O=C(CN(c1ccc(F)cc1)S(=O)(=O)c1ccc2c(c1)OCCO2)Nc1ccc2c(c1)OCO2 | 5.01 µM [falling, partial curve]
CN(C)c1nc(Oc2ccc(C(=O)OCC(=O)Nc3ccccc3)cc2)nc(N(C)C)n1 | 0.0158 µM [falling, full curve]
Clc1ccc(C2Nc3ccccc3-n3cccc32)cc1 (stereo not drawn) | 7.94 µM [rising, partial curve]
COCCn1c(=O)c(-c2ccc(Cl)cc2)nc2cnc(Oc3ccccc3)nc21 | 15.8 µM [rising, partial curve]
COCCN(CCOC)Cc1c(O)ccc2c3c(c(=O)oc12)CCC3 | 12.6 µM [rising, partial curve]
CC(=O)c1cccc(NC(=O)CCS(=O)(=O)c2cccc3nonc23)c1 | 1.58 µM [rising, partial curve]
